These are yes or no findings as the source states them, for the method shown. Some results given as binding are weak or reduced against the parent protein; the word gives no strength.
Assays:
[1] = biological target: Insulin like growth factor 1 receptor (IGF-1R) of CHO cells (Chinese hamster); experiment: FACS staining and sorting of shRNA-transfected CHO-DUXB11 derived cells with the labelled ligand
[2] = biological target: Insulin like growth factor 1 receptor (IGF-1R) of CHO cells (Chinese hamster); experiment: FACS staining of pZFN-transfected CHO-DUXB11 derivative cells with the labelled ligand

binding [1]: binds
binding [2]: binds
Substance: Cy5 labeled hIGF-1Ea 3mut (from UniProt P17647 29-130) (ligand)

— US20150322131A1
